According to PMC8803816:
No constants are given. Whether binding was seen depends on the method and setting. Binding seen in cells or lysates may run through a third protein. Some results given as binding are weak or reduced against the parent protein; the word gives no strength. Tags and fused reporters may be left off the sequences shown.

Molecular target: T1, A20-Flag-Strep-Strep WT (UniProt P21580)
T1 sequence: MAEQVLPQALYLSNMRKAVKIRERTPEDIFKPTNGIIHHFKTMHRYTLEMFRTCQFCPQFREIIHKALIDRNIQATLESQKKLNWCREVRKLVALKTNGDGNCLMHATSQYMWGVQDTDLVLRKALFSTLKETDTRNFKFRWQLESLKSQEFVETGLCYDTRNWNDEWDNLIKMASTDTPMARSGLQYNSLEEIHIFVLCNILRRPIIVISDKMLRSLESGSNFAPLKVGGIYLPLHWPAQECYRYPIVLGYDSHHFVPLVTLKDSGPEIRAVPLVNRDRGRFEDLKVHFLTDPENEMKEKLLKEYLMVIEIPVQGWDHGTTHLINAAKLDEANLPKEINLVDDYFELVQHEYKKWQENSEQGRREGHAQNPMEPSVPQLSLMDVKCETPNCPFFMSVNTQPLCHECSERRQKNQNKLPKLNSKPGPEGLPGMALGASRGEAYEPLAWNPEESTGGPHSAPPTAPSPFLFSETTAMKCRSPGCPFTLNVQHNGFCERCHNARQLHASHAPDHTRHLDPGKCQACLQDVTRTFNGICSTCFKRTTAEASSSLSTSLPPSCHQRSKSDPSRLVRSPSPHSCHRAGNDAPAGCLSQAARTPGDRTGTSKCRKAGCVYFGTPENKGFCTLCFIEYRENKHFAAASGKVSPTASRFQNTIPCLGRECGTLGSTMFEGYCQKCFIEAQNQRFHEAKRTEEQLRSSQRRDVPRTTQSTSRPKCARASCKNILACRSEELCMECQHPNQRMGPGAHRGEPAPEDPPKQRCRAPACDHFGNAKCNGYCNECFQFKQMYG
Test: pull-down; Strep-PD (Strep-Tactin Sepharose) of FS-tagged A20 from lysates of transduced A20 KO Jurkat T cells after P/I stimulation; Western blot

B1: Caspase recruitment domain 11 (CARD11) (protein, UniProt Q9BXL7 1-1154)
chain: MPGGGPEMDDYMETLKDEEDALWENVECNRHMLSRYINPAKLTPYLRQCKVIDEQDEDEVLNAPMLPSKINRAGRLLDILHTKGQRGYVVFLESLEFYYPELYKLVTGKEPTRRFSTIVVEEGHEGLTHFLMNEVIKLQQQMKAKDLQRCELLARLRQLEDEKKQMTLTRVELLTFQERYYKMKEERDSYNDELVKVKDDNYNLAMRYAQLSEEKNMAVMRSRDLQLEIDQLKHRLNKMEEECKLERNQSLKLKNDIENRPKKEQVLELERENEMLKTKNQELQSIIQAGKRSLPDSDKAILDILEHDRKEALEDRQELVNRIYNLQEEARQAEELRDKYLEEKEDLELKCSTLGKDCEMYKHRMNTVMLQLEEVERERDQAFHSRDEAQTQYSQCLIEKDKYRKQIRELEEKNDEMRIEMVRREACIVNLESKLRRLSKDSNNLDQSLPRNLPVTIISQDFGDASPRTNGQEADDSSTSEESPEDSKYFLPYHPPQRRMNLKGIQLQRAKSPISLKRTSDFQAKGHEEEGTDASPSSCGSLPITNSFTKMQPPRSRSSIMSITAEPPGNDSIVRRYKEDAPHRSTVEEDNDSGGFDALDLDDDSHERYSFGPSSIHSSSSSHQSEGLDAYDLEQVNLMFRKFSLERPFRPSVTSVGHVRGPGPSVQHTTLNGDSLTSQLTLLGGNARGSFVHSVKPGSLAEKAGLREGHQLLLLEGCIRGERQSVPLDTCTKEEAHWTIQRCSGPVTLHYKVNHEGYRKLVKDMEDGLITSGDSFYIRLNLNISSQLDACTMSLKCDDVVHVRDTMYQDRHEWLCARVDPFTDHDLDMGTIPSYSRAQQLLLVKLQRLMHRGSREEVDGTHHTLRALRNTLQPEEALSTSDPRVSPRLSRASFLFGQLLQFVSRSENKYKRMNSNERVRIISGSPLGSLARSSLDATKLLTEKQEELDPESELGKNLSLIPYSLVRAFYCERRRPVLFTPTVLAKTLVQRLLNSGGAMEFTICKSDIVTRDEFLRRQKTETIIYSREKNPNAFECIAPANIEAVAAKNKHCLLEAGIGCTRDLIKSNIYPIVLFIRVCEKNIKRFRKLLPRPETEEEFLRVCRLKEKELEALPCLYATVEPDMWGSVEELLRVVKDKIGEEQRKTIWVDEDQL
- binding: binds
